Data taken from patent publication US9156816B2 (priority 2010, dated 2015).
Some of these results come from one statement about several compounds together.

How the values were obtained:
Pythium ultimum = experiment: Cucumber damping-off (PU) control test; type: in vivo; conditions: soil irrigated with 30 ml emulsion at active ingredient concentration of 100 ppm, ratio of healthy seedlings on day 7 after planting vs untreated group
Method: 40 ml of sterile soil were placed in plastic cups followed by leveling the surface of the soil. The soil was then irrigated with 30 ml of the aforementioned emulsion of Preparation Example 2 at an active ingredient concentration of 100 ppm. Following irrigation, cucumbers (variety: Sagami Hanjiro) were planted in the soil and covered with 20 ml of contaminated soil (containing Pythium ultimum) from above. The cups were then placed in plastic bags and allowed to stand undisturbed for 3 days in a constant temperature room at 25° C. (dark location […]). Next, the plants were removed from the bags and held in a constant temperature room at 25° C. using a light-dark cycle of 12 hours. On day 7 after planting, the ratios of healthy seedlings were compared between an untreated group and treated group to calculate control effects (control values).

[1] = tested on: tomato late blight pathogen (Phytophthora infestans); type: in vivo; conditions: emulsion sprayed at active ingredient concentration of 100 ppm onto tomato seedlings; 4 days after inoculation, 20° C.; vs untreated group
Pythium aphanidermatum = experiment: Antimicrobial test (mycelia growth inhibition); type: cell-based; conditions: compound concentration of 1 ppm; PSY medium, 25° C., days 3 to 7 of culturing
Method: The compound according to the present invention was dissolved in dimethylsulfoxide and diluted to double the prescribed concentration in a 96-well microplate using PSY medium to obtain a drug solution. On the other hand, a diluted dimethylsulfoxide solution was prepared using PSY medium for use as an untreated group.
A suspension of liquid-cultured test microorganisms (Pythium aphanidermatum) was mixed with an equal volume of the drug solution and cultured in a dark location at 25° C. Mycelia growth was observed on days 3 to 7 of culturing to determine mycelia growth inhibition rates.

Structure (SMILES)	control value (Pythium ultimum) [%]	control value [1] [%]	mycelia growth inhibition rate (Pythium aphanidermatum) [%]
CCOC(C)(OCC)C(=O)Nc1cccc(CO/N=C(/c2ccccc2)c2nnnn2C)n1.Cl [a-33]	≥ 50	≥ 70	
CCOC(C)(OCC)C(=O)Nc1cccc(CO/N=C(/c2ccccc2)c2nnnn2C)n1 [a-18]			≥ 50
